Source: the supplement of paper PMC10849652
This is one part of the list.

By UniProt entry, the sequences of proteins in these tests, tags left out. Where a name states a change or a piece, a line headed by the entry shows the natural chain unless it says otherwise.
UniProt Q9H0A8, whole entry, looked up: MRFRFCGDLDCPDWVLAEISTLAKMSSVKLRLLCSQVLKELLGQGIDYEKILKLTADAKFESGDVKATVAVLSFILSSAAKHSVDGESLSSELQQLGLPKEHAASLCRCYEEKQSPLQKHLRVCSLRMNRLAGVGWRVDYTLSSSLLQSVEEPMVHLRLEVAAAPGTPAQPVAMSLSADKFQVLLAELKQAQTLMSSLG
UniProt Q9Y678: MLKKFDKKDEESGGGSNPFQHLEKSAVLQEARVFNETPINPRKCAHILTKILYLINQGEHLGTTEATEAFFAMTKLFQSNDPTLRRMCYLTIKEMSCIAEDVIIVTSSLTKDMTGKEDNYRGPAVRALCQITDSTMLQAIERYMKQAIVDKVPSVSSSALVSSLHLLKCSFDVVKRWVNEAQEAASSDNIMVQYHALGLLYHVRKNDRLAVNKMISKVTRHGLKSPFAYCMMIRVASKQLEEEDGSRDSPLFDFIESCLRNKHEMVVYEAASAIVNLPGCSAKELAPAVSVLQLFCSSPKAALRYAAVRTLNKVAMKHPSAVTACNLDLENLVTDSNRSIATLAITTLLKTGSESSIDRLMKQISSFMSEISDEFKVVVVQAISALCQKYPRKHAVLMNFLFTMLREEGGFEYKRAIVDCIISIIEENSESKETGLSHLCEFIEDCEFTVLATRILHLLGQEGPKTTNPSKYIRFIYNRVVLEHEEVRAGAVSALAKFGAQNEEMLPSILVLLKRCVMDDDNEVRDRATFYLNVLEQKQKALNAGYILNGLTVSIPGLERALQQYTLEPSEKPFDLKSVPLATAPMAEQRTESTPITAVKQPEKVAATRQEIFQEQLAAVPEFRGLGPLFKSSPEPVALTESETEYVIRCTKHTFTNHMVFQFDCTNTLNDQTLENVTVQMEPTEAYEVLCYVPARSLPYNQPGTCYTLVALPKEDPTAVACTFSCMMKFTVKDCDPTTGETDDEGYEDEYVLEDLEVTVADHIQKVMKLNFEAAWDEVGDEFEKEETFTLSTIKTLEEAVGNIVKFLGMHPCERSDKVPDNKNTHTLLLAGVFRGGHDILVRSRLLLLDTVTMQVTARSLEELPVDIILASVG
UniProt P61923: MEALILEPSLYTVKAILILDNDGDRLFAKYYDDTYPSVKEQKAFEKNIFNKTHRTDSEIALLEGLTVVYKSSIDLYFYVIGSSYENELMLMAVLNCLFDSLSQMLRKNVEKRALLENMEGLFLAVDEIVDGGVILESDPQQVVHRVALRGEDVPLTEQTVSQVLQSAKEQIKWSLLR
UniProt O75175, whole entry, looked up: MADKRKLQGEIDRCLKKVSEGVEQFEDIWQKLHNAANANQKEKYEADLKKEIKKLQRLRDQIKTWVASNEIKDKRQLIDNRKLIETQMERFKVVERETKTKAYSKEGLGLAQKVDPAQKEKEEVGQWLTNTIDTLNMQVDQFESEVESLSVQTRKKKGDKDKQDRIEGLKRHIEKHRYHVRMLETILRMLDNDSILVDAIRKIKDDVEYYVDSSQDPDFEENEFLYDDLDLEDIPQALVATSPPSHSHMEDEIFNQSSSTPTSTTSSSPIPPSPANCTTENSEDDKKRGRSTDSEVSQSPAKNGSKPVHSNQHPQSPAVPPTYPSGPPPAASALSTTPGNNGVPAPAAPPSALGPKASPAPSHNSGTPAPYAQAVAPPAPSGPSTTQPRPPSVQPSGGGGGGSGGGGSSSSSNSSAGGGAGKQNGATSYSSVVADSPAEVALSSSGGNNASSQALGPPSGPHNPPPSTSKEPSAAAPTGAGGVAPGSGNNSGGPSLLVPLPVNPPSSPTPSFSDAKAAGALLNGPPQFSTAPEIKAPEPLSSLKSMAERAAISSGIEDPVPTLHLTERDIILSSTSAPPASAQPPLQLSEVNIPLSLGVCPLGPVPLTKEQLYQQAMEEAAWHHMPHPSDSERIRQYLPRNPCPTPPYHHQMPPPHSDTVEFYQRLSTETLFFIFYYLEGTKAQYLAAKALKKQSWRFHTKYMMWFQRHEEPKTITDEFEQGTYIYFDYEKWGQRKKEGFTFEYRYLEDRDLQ
UniProt P09543: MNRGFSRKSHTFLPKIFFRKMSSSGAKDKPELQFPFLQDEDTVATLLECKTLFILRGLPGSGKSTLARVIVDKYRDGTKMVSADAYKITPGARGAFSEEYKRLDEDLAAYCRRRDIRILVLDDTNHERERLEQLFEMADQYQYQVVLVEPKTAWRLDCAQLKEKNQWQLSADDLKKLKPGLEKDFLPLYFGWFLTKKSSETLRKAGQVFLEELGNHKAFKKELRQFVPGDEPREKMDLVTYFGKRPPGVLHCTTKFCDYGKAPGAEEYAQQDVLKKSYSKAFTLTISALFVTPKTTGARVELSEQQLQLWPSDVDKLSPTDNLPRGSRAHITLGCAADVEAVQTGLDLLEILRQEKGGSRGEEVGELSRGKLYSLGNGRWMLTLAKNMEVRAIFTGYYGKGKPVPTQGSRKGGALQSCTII
UniProt Q5JTJ3: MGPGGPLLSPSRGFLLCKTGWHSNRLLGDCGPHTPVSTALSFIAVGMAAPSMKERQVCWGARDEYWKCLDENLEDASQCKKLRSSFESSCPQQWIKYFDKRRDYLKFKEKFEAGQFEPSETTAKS
UniProt P36551: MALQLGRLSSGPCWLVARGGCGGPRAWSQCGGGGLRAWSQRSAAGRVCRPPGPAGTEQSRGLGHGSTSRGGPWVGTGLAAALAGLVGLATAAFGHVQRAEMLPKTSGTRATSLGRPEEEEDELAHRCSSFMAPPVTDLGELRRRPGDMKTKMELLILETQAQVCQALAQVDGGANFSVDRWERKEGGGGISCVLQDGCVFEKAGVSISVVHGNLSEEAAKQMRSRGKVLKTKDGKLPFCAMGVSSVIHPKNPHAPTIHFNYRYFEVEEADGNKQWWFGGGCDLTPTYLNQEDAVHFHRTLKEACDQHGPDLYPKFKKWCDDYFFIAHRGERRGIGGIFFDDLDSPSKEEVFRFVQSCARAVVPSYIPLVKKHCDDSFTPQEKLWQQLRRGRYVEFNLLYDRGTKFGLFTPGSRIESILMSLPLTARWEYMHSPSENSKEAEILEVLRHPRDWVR
UniProt Q10570: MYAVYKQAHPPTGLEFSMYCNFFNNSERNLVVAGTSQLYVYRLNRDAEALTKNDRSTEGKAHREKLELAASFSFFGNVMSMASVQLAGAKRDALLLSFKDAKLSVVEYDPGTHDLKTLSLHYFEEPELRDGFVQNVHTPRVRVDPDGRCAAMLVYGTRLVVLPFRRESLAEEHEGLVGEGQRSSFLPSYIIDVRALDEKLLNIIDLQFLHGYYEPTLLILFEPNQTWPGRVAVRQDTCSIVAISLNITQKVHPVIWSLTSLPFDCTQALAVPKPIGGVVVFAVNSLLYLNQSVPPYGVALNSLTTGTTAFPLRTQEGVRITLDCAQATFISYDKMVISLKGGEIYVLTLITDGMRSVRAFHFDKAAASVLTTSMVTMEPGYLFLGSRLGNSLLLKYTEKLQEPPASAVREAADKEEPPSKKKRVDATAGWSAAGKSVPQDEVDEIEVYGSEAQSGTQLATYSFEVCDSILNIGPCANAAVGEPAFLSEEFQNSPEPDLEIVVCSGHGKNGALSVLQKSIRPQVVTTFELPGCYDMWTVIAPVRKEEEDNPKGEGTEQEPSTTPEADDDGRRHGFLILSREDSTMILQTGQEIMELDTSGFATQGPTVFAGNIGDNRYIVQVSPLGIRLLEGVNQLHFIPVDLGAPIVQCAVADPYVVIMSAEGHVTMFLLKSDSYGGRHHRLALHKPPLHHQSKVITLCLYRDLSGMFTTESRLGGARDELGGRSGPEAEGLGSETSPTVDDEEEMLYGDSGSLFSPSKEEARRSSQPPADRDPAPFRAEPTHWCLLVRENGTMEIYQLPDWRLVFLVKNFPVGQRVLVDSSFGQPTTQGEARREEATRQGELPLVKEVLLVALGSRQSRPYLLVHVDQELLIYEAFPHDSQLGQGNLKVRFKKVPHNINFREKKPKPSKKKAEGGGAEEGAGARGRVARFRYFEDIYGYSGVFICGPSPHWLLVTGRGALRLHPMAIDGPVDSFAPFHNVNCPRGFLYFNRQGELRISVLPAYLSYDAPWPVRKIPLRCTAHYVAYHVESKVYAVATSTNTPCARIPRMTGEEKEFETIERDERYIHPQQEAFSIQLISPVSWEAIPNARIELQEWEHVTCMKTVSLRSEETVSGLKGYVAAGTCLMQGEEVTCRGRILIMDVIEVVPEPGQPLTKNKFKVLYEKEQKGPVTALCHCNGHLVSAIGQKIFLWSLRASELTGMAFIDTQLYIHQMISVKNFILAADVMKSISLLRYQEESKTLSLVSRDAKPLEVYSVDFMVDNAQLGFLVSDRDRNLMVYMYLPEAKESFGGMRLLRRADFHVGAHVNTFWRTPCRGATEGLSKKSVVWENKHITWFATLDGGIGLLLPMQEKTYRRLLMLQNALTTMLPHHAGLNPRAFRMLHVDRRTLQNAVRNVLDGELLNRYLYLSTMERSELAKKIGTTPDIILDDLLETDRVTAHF
UniProt P14406, whole entry, looked up: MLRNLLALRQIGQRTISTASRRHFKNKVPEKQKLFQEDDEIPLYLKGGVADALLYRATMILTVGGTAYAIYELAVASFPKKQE
UniProt Q92600, whole entry, looked up: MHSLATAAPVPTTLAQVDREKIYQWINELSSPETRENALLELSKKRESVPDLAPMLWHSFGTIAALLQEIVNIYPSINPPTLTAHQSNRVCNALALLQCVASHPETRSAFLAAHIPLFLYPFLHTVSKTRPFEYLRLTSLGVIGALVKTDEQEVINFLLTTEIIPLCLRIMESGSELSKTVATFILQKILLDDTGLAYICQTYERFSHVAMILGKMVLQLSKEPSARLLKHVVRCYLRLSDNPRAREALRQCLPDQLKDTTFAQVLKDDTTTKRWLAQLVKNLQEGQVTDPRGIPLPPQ
UniProt Q86VX2, whole entry, looked up: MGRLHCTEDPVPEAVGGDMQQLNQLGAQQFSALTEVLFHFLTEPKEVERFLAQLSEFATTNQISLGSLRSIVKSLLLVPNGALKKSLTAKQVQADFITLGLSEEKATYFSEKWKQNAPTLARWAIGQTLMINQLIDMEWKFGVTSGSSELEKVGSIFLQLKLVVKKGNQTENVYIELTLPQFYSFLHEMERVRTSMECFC
UniProt Q9Y2R0: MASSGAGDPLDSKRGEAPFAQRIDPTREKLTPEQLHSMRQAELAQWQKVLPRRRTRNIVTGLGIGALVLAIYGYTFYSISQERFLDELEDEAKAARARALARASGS
UniProt Q9UKF6: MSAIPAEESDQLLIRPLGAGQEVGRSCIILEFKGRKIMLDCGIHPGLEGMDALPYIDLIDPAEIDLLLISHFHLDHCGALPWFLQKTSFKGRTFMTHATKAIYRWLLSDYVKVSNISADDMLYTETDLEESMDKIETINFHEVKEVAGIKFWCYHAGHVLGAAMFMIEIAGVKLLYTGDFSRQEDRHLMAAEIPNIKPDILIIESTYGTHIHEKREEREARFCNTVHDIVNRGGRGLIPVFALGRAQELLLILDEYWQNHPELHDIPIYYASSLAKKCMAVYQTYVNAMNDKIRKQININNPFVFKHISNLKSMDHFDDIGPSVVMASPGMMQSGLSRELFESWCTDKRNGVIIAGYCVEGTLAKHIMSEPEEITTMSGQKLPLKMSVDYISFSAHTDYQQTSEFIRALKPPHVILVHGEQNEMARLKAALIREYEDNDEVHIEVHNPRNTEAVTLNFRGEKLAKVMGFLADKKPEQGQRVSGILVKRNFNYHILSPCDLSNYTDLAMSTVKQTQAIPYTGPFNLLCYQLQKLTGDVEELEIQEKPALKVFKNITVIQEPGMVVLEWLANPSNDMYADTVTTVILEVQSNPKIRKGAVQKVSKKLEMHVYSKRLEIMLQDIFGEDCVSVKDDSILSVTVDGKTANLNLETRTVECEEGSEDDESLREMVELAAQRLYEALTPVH
UniProt Q96F85: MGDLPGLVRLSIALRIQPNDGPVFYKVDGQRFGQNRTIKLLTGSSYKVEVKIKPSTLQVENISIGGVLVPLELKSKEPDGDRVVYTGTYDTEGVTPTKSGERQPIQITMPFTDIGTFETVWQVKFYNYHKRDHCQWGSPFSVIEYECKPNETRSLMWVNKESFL
UniProt Q9BU20: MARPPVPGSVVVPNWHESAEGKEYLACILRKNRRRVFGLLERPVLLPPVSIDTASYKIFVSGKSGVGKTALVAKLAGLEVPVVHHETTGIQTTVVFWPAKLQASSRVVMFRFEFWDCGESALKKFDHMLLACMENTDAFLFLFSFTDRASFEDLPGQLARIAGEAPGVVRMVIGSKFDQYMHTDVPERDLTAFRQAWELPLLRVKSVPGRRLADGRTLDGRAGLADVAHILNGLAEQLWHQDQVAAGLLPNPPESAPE

How the values were obtained:
Assay in all cases: log2 fold change, soluble protein after heating vs DMSO (PISA); higher = thermal stabilisation; K562 lysate, 10 uM; active = over 0.2 and 3.5 SD of the protein, either way, in both replicates (recomputed)
vemurafenib = compound: CCCS(=O)(=O)Nc1ccc(F)c(C(=O)c2c[nH]c3ncc(-c4ccc(Cl)cc4)cc23)c1F [vemurafenib]
Method in brief: (§1)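 The values are log-two fold changes in thermal stability compared with solvent controls and come from duplicates. They were obtained by TMTpro 16plex LC-MS/MS, with channel sums equalised, on the supernatant after 21,000xg for 90 min. That supernatant came from crude K562 extract at 1 mg/mL protein treated with 10 μM compound for 30 min, heated for 3 min across 48°C-58°C, pooled and brought to 0.5% NP-40 at 4°C.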

[1] = compound: CCCS(=O)(=O)Nc1ccc(F)c(C(=O)c2c[nH]c3ncc(Cl)cc23)c1F
Method in brief: as §1

barasertib = compound: CCN(CCCOc1ccc2c(Nc3cc(CC(=O)Nc4cccc(F)c4)[nH]n3)ncnc2c1)CCOP(=O)(O)O [barasertib]
Method in brief: as §1

[2] = compound: CC[C@@H]1C(=O)N(C)c2cnc(Nc3ccc(C(=O)NC4CCN(C)CC4)cc3OC)nc2N1C1CCCC1
Method in brief: as §1

volasertib = compound: CC[C@@H]1C(=O)N(C)c2cnc(Nc3ccc(C(=O)N[C@H]4CC[C@H](N5CCN(CC6CC6)CC5)CC4)cc3OC)nc2N1C(C)C [volasertib]
Method in brief: as §1

[3] = compound: CCn1c(C(=O)N(C2CC2)C2CC2)cc2c3c(ncn3C)c(Nc3cc(C)n(C)n3)nc21
Method in brief: as §1

[4] = compound: CCn1cc(-c2ccnc3[nH]c(-c4cccc(CN(C)C)c4)cc23)c(-c2ccc(NC(=O)N(C)C)cc2)n1
Method in brief: as §1

[5] = compound: CN1CCC(CNc2ccc3ncc(-c4cccc(OC(F)(F)F)c4)n3n2)CC1
Method in brief: as §1

saracatinib = compound: CN1CCN(CCOc2cc(OC3CCOCC3)c3c(Nc4c(Cl)ccc5c4OCO5)ncnc3c2)CC1 [saracatinib]
Method in brief: as §1

sotrastaurin = compound: CN1CCN(c2nc(C3=C(c4c[nH]c5ccccc45)C(=O)NC3=O)c3ccccc3n2)CC1 [sotrastaurin]
Method in brief: as §1

Measured: log2 fold change

COMMD4 (UniProt Q9H0A8)
inactive: vemurafenib 0.021 | [1] 0.005 | barasertib -0.027 | [2] -0.052 | volasertib 0.011 | [3] 0.07 | [4] -0.047 | [5] 0.028 | saracatinib 0.035 | sotrastaurin 0.012

COPG1 (UniProt Q9Y678)
inactive: vemurafenib 0.007 | [1] 0.005 | barasertib 0.007 | [2] -0.008 | volasertib -0.009 | [3] -0.002 | [4] -0.014 | [5] 0.007 | saracatinib -0.023 | sotrastaurin -0.034

COPZ1 isoform 4 (UniProt P61923)
inactive: vemurafenib -0.054 | [1] -0.004 | barasertib 0.111 | [2] 0.022 | volasertib 0.019 | [3] 0.004 | [4] -0.015 | [5] -0.187 | saracatinib 0.018 | sotrastaurin 0.01

CNOT3 (UniProt O75175)
inactive: vemurafenib -0.01 | [1] 0.008 | barasertib -0.001 | [2] 0.159 | volasertib -0.013 | [3] 0.055 | [4] -0.044 | [5] 0.08 | saracatinib 0.009 | sotrastaurin -0.009

CNP (UniProt P09543)
inactive: vemurafenib 0.005 | [1] -0.011 | barasertib 0.003 | [2] -0.097 | volasertib -0.022 | [3] 0.019 | [4] -0.023 | [5] -0.028 | saracatinib 0.01 | sotrastaurin -0.008

COA6 isoform 2 (UniProt Q5JTJ3)
inactive: vemurafenib 0 | [1] 0.012 | barasertib 0.041 | [2] -0.113 | volasertib 0.002 | [3] 0.019 | [4] -0.05 | [5] 0.016 | saracatinib 0.002 | sotrastaurin 0.04

CPOX (UniProt P36551)
inactive: vemurafenib 0.01 | [1] 0.056 | barasertib -0.056 | [2] 0.055 | volasertib 0.006 | [3] -0.039 | [4] 0.062 | [5] 0.035 | saracatinib -0.011 | sotrastaurin 0.036

Quoted at random: two entries already listed.
CNP (UniProt P09543)
inactive: vemurafenib 0.005 | [1] -0.011 | barasertib 0.003 | [2] -0.097 | volasertib -0.022 | [3] 0.019 | [4] -0.023 | [5] -0.028 | saracatinib 0.01 | sotrastaurin -0.008

CPOX (UniProt P36551)
inactive: vemurafenib 0.01 | [1] 0.056 | barasertib -0.056 | [2] 0.055 | volasertib 0.006 | [3] -0.039 | [4] 0.062 | [5] 0.035 | saracatinib -0.011 | sotrastaurin 0.036

(list continues)

CPSF1 (UniProt Q10570)
inactive: vemurafenib 0.006 | [1] 0.02 | barasertib 0.007 | [2] 0.023 | volasertib -0.025 | [3] 0.003 | [4] -0.075 | [5] 0.033 | saracatinib 0.041 | sotrastaurin 0.004

COX7A2 (UniProt P14406)
inactive: vemurafenib 0.033 | [1] -0.057 | barasertib 0.148 | [2] 0.032 | volasertib 0.024 | [3] 0.07 | [4] -0.03 | [5] -0.069 | sotrastaurin -0.002

CNOT9 (UniProt Q92600)
inactive: vemurafenib -0.003 | [1] -0.004 | barasertib 0.074 | [2] 0.012 | volasertib -0.011 | [3] 0.043 | [4] -0.055 | [5] 0.01 | saracatinib 0.016 | sotrastaurin -0.01

COMMD7 (UniProt Q86VX2)
inactive: vemurafenib -0.006 | [1] 0.019 | barasertib 0.001 | [2] 0.04 | volasertib -0.036 | [3] -0.021 | [4] -0.205 | [5] 0.107 | saracatinib -0.035 | sotrastaurin -0.011

COA3 (UniProt Q9Y2R0)
inactive: vemurafenib -0.084 | [1] -0.023 | barasertib 0.075 | [2] 0.105 | volasertib 0.024 | [3] 0.017 | [4] -0.052 | [5] -0.001 | saracatinib 0.018 | sotrastaurin 0.004

CNTN4 (UniProt Q8IWV2)
inactive: vemurafenib 0.237 | [1] 0.12 | barasertib 0.03 | [2] 0.295 | volasertib 0.024 | [3] -0.326 | [4] -0.474 | [5] 0.128 | sotrastaurin -0.076

CPSF3 (UniProt Q9UKF6)
inactive: vemurafenib -0.066 | [1] -0.014 | barasertib 0.004 | [2] -0.044 | volasertib -0.004 | [3] 0.03 | [4] -0.013 | [5] 0.005 | saracatinib -0.004 | sotrastaurin 0.023

CNRIP1 (UniProt Q96F85)
inactive: vemurafenib 0.103 | [1] -0.043 | barasertib -0.317 | volasertib 0 | [3] -0.174 | saracatinib 0.021 | sotrastaurin 0.076

CPLANE2 (UniProt Q9BU20)
inactive: [3] -0.016 | sotrastaurin 0.108
